About 13,000 (3.2%) of roughly 400,000 compounds were called active. The inconclusive results got no clear call from the source; some entries with a clear call stand among them for comparison. The call rests on the fitted dose curve; in most records, active means well fitted cell-killing curve with a large enough effect; inconclusive means small, poorly fitted or top-dose-only effect, or effect the other way; inactive means flat fitted curve, though single readings scatter. Where the call is inconclusive, the potency comes from a doubtful curve fit.
assay: qHTS assay for MDR1-selective chemotherapeutics: Primary screen using the drug-selected MDR subline cells KB-V1; details: KB-V1 MDR cells viability, CellTiter-Glo, 72 h; activity change, negative = cytotoxicity: at 46.1 µM (top of the series); further: nearly all actives have a fitted effect of over 60% in size
In short: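 Drug-selected KB-V1 cells, grown in DMEM lacking phenol red with 10% FBS, receive compound titrations; after three days at 37 degrees C, surviving cell ATP is quantified by CellTiter-Glo luminescence and responses normalized and curve-fitted.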
On the % scale 0 is the no-effect control and ±100 the full control effect; potency means the concentration at half of the fitted maximal effect.

Structure (SMILES)	Potency	activity change, negative = cytotoxicity
CCOc1ccc(NC(=O)C(Cc2ccccc2)N2C(=O)c3cccc4cccc(c34)C2=O)cc1 (stereo not drawn)	inconclusive: 29.1 µM [cytotoxic, single point]	–
Cc1ccc2nc(/C(C#N)=C\c3ccc(N4CCCCC4)c([N+](=O)[O-])c3)[nH]c2c1	inactive	–
COc1ccc(CC(=O)Nc2cccc(S(=O)(=O)N3CCCCCC3)c2)cc1OC	active: 1.84 µM	–
COc1ccc(N2CCN(C(=O)CSc3nc(C)cs3)CC2)cc1	inactive	–
COc1ccc(CNC(=O)CCC(=O)N2CCN(S(=O)(=O)c3cc([N+](=O)[O-])ccc3C)CC2)cc1	inactive	–
COc1cc(C)ccc1NC(=O)Cc1csc(NC(=O)Nc2ccccc2OC)n1	inconclusive: 23.1 µM [cytotoxic, single point]	–
COc1ccc(OC)c(S(=O)(=O)n2cnc3cc(C)c(C)cc32)c1	inconclusive: 18.4 µM [cytotoxic, single point]	–
CC(=O)Nc1ccccc1-c1cccc2nccn12	inactive	–
CCS(=O)(=O)N1Cc2ccccc2CC1C(=O)Nc1nc2ccc(F)cc2s1 (stereo not drawn)	active: 14.6 µM	–
COc1ccc(CNc2nc3ccccc3n2C(C)C)c(O)c1	inconclusive: 7.31 µM [cytotoxic, partial curve]	–
CC(CC(=O)Nc1ncc([N+](=O)[O-])s1)c1ccccc1 (stereo not drawn)	inconclusive: 18.4 µM [cytotoxic, single point]	–
C=C(C)C(=O)OCC(O)COc1ccc(C(C)(C)c2ccc(OCC(O)COC(=O)C(=C)C)cc2)cc1 (stereo not drawn)	inconclusive: 29.1 µM [cytotoxic, single point]	–
Cn1cnc2c(cnn2C)c1=O	inactive	–
COc1ccccc1NC(=S)NC(NC(=O)CC(C)C)C(Cl)(Cl)Cl (stereo not drawn)	inactive	–
COc1ccc(-n2c(SCC(=O)NNC(=O)c3ccc(C)cc3)nnc2-c2ccncc2)cc1	inconclusive: 23.1 µM [rising, partial curve, poor fit]	–
Cn1nccc1C(=O)Nc1sc2c(c1C(N)=O)CCCC2	inconclusive: 18.4 µM [cytotoxic, single point]	–
Cc1nc(Oc2ccc(F)cc2Cl)c2oc3ccccc3c2n1	inactive	–
O=C(c1cc(-c2ccc(Br)cc2)nc2ccccc12)N1CCN(c2ccccc2O)CC1	inactive	–
O=C(CN1C(=O)COc2ccccc21)Nc1ccc(F)cc1	inconclusive: 2.59 µM [rising, full curve, poor fit]	–
COc1cccc(N=Cc2c(O)c3ccccc3oc2=O)c1	inconclusive: 29.1 µM [cytotoxic, single point]	–
Cc1cc(=O)oc2cc(OCc3ccc(C(=O)OCC(=O)Nc4ccc(N(C)C)cc4)cc3)ccc12	inconclusive: 5.8 µM [rising, partial curve]	–
O=CC(=Cc1ccccc1)c1ccccc1	inactive	–
COc1ccc(-c2nc(-c3ccc4c(c3)OCO4)[nH]c2-c2ccc(OC)cc2)cc1	active: 20.6 µM	–
COC(=O)C/C(O)=C(/N=Nc1cccc(C(F)(F)F)c1)C(=O)OC	inactive	–
CCOc1cc(Br)c(CC(=O)NC2CCCCCC2)cc1OCC	active: 10.3 µM	–

Structure (SMILES)	Potency	activity change, negative = cytotoxicity
COc1ccc(-n2nc3c(c2NC(=O)c2cc4ccccc4o2)CS(=O)(=O)C3)cc1	inconclusive: 3.26 µM [cytotoxic, partial curve, poor fit]	–
CCOc1ccc(S(=O)(=O)N2CCN(Cc3ccco3)CC2)cc1	inconclusive: 18.4 µM [cytotoxic, single point]	–
CCOC(=O)Cc1nn(Cc2ccccc2)c(=O)c2ccccc12	inconclusive: 10.3 µM [cytotoxic, partial curve]	–
CN(Cc1nc(Cc2ccccc2F)no1)CC1(N2CCOCC2)CCCCC1	inactive	–
CC(C)CC(N)c1csc(Nc2ccc(C(F)(F)F)cn2)n1 (stereo not drawn)	active: 16.4 µM	–
O=C(COc1ccc(Cl)cc1)Nc1ccccc1Cl	inconclusive: 29.1 µM [cytotoxic, single point]	–
Cc1ccc(NC(=O)CCc2nnc3n(C)c(=O)c4sccc4n23)cc1C	inactive	–
CC1(C(=O)NS(=O)(=O)c2ccc(C#N)cc2)CCN1C(=O)CC1CCCCC1 (stereo not drawn)	inactive	–
COc1ccc(OC)c(-c2csc(NC(=O)Cc3ccccc3)n2)c1	inconclusive: 18.4 µM [cytotoxic, single point]	–
Cc1ccc(SCc2ccc(C(=O)NCc3ccncc3)cc2)cc1	active: 18.4 µM	–
O=C(Nc1nc2ccc(S(=O)(=O)N3CCCC3)cc2s1)C1CCCCC1	active: 3.66 µM	–
Cc1ccc(NC(=S)N2CCN(CCN3C(=O)c4cccc5cccc(c45)C3=O)CC2)cc1	active: 14.6 µM	–
Cc1ccc(C)c(NC(=O)CN2C(=O)C(C)(C)c3ccccc32)c1	inconclusive: 20.6 µM [cytotoxic, partial curve, poor fit]	–
COc1cc(CCN2C(=O)c3cccc4cccc(c34)C2=O)c(S(=O)(=O)N2CCCCCC2)cc1OC	inconclusive: 9.2 µM [cytotoxic, partial curve, poor fit]	–
O=C1C(=O)c2c(C(=O)c3ccccc3)coc2-c2ccccc21	active: 20.6 µM	–
COC(=O)Nc1ccccc1C(=O)N1CCN(c2ccc(C)cc2)CC1	inconclusive: 20.6 µM [cytotoxic, single point]	–
O=C(COc1ccccc1)Nc1ccc(N2CCN(C(=O)c3cccs3)CC2)cc1	inconclusive: 29.1 µM [cytotoxic, single point]	–
COc1cccc(-c2cccc(-c3nc(C(=O)NCCCN4CCOCC4)cc4c3[C@H](CCO)N(S(=O)C(C)(C)C)C4)c2)c1 (stereo partly drawn)	inconclusive: 29.1 µM [cytotoxic, single point]	–
COc1cccc(/C=C/c2ccc3ccccc3[n+]2C)c1OC	inconclusive: 32.6 µM [cytotoxic, single point]	–
O=C1CC2CC1C(C(=O)O)C2C(=O)O (stereo not drawn)	inactive	–
CCCCC[C@@H]1C=C(C(=O)O)[C@H](c2ccc(OC)c(OC)c2)N1S(=O)(=O)c1ccc(C)cc1	inconclusive: 23.1 µM [rising, single point]	–
COc1ccc(OC)c(C(=O)CN2C(=O)C(=O)N(C3CCCC3)C2=O)c1	inconclusive: 20.6 µM [rising, partial curve]	–
O=S(=O)(NCc1ccco1)N1CCOCC1	inconclusive: 20.6 µM [rising, single point]	–
Cc1ccc(/C=N/NC(=O)c2cc(C3CC3)nc3ccccc23)o1	inconclusive: 29.1 µM [cytotoxic, single point]	–
Cc1ccc2nc(N3CCC(C(=O)N4CCN(c5cccc(Cl)c5)CC4)CC3)[nH]c2c1	inconclusive: 29.1 µM [cytotoxic, single point]	–

Gathered by group, the entries above containing a COOH group.
Structure (SMILES)	Potency	activity change, negative = cytotoxicity
O=C1CC2CC1C(C(=O)O)C2C(=O)O (stereo not drawn)	inactive	–
CCCCC[C@@H]1C=C(C(=O)O)[C@H](c2ccc(OC)c(OC)c2)N1S(=O)(=O)c1ccc(C)cc1	inconclusive: 23.1 µM [rising, single point]	–

Carrying on:

Structure (SMILES)	Potency	activity change, negative = cytotoxicity
O=C(CC(c1ccccc1)c1ccccc1)Nc1ccc(Cl)cn1	inconclusive: 9.2 µM [cytotoxic, partial curve]	–
OC[C@H]1O[C@@H](n2cnc3c(NCc4ccco4)ncnc32)[C@H](O)[C@@H]1O	inactive	–
CCOCCCNC(=O)C(c1ccc(C)cc1)N(Cc1ccc2c(c1)OCO2)C(=O)c1ccc(NC(C)=O)cc1 (stereo not drawn)	inactive	–
Cc1ccc(Cn2nc(C)c(C(=O)NCC(c3cccs3)N3CCOCC3)c2Cl)cc1 (stereo not drawn)	inconclusive: 5.8 µM [cytotoxic, partial curve]	–
CCOC(=O)CC(=O)CSc1ncnc2c1cnn2-c1ccccc1	inconclusive: 20.6 µM [cytotoxic, single point]	–
Cc1ccc(CCNC(=O)CC(C)CC2=NS(=O)(=O)c3ccccc3N2)cc1 (stereo not drawn)	inactive	–
CCOC(=O)c1cnc2ccc(OCC)cc2c1NCCCN1CCOCC1	–	inconclusive: -42.3%
CCN(CC)c1ccc(/C=N/NC(=O)c2ccoc2C)c(O)c1	inconclusive: 1.46 µM [cytotoxic, full curve, poor fit]	–
CCCC(C(=O)n1nc(C)cc1C)C(NS(=O)(=O)c1ccc(C)cc1)c1ccccc1 (stereo not drawn)	active: 23.1 µM	–
CCOP(=O)(c1ccccc1)c1nc(-c2ccccc2C)oc1N1CCCCC1 (stereo not drawn)	inconclusive: 14.6 µM [cytotoxic, partial curve, poor fit]	–
COc1ccc(C2=Cc3ccc(OC(C)=O)cc3OC2)cc1	inconclusive: 29.1 µM [cytotoxic, single point]	–
CC(=O)N1CCOc2ccc(S(=O)(=O)N(C)c3cccc(C)c3)cc21	inactive	–
Cc1cc(C)nc(NC(=O)C(c2ccccc2)c2ccccc2)c1	inconclusive: 6.51 µM [cytotoxic, partial curve]	–
O=C(NCC1CCCO1)c1ccccc1NC(=O)c1cccc2ccccc12 (stereo not drawn)	inconclusive: 9.2 µM [cytotoxic, partial curve, poor fit]	–
CCOc1ccc2nc(N/C(N)=N/C(=S)Nc3ccc(OC)cc3)nc(C)c2c1	inactive	–
CC(C)c1ccc(NS(=O)(=O)c2ccc(Cl)nc2)cc1	inactive	–
O=c1c2ccccc2oc2c1ccc1ccccc12	inactive	–
CCCn1c2c(c(=N)c3c1CCC3)CCCC2	inconclusive: 29.1 µM [rising, single point]	–
COc1cc(C(=O)NCC(c2cccs2)S(=O)(=O)c2ccc(F)cc2)cc(OC)c1OC (stereo not drawn)	inactive	–
CC(C)NC(=O)CN1C(=O)COc2ccc(S(=O)(=O)N3CCCCCC3)cc21	inactive	–
COc1ccc(-c2nnn(CC(=O)N(CC(=O)NC3CCCC3)Cc3ccco3)n2)cc1OC	inactive	–
Cc1cccc(NC(=O)c2nc[nH]c2C(=O)N[C@H](C)CO)c1	inactive	–
O=C(c1ccc(N2CCN(C(=O)c3ccc(F)c(F)c3)CC2)cc1)c1cccc(F)c1	inconclusive: 32.6 µM [cytotoxic, partial curve, poor fit]	–

Entries listed so far that have a CF3 group:
Structure (SMILES)	Potency	activity change, negative = cytotoxicity
COC(=O)C/C(O)=C(/N=Nc1cccc(C(F)(F)F)c1)C(=O)OC	inactive	–
CC(C)CC(N)c1csc(Nc2ccc(C(F)(F)F)cn2)n1 (stereo not drawn)	active: 16.4 µM	–

Source: PubChem BioAssay AID1347076 (National Center for Advancing Translational Sciences (NCATS), 2019)
